Primary screen of a compound library

Amino acid sequences for entries named in this document (tags omitted). Residues count along the entry.
UniProt P9WNZ1, whole entry: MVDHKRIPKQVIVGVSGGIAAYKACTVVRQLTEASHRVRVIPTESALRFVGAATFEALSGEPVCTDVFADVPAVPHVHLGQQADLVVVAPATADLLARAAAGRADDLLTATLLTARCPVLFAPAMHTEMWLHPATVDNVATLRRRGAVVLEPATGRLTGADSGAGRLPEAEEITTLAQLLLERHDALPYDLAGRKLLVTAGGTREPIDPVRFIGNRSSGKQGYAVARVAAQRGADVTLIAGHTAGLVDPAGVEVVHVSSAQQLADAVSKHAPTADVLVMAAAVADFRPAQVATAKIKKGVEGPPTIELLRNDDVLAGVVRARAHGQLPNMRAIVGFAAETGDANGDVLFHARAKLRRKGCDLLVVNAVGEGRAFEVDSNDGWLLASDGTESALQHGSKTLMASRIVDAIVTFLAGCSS
UniProt P9WFT3, whole entry: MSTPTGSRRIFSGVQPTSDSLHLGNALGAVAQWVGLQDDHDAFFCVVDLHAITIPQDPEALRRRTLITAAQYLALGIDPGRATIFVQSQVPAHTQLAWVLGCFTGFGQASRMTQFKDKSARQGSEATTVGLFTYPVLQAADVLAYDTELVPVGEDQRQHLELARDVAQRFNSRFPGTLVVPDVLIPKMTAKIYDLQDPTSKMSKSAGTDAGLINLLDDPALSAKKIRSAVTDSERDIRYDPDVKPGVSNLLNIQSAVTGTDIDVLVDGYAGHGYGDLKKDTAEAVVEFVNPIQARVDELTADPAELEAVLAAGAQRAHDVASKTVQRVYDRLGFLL
UniProt P9WPC5, whole entry: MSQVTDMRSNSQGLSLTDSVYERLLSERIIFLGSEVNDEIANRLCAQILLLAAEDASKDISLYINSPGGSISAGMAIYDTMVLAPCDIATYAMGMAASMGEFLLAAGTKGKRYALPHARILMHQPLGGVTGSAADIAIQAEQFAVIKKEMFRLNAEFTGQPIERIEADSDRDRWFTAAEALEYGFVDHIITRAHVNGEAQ
UniProt P9WPC3, whole entry partner: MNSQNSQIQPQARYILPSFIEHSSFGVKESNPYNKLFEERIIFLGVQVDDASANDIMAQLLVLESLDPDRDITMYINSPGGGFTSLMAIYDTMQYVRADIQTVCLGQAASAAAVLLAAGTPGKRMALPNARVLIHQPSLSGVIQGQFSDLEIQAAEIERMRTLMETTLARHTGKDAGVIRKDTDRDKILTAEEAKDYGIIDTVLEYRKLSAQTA
UniProt A4I591, 1-473: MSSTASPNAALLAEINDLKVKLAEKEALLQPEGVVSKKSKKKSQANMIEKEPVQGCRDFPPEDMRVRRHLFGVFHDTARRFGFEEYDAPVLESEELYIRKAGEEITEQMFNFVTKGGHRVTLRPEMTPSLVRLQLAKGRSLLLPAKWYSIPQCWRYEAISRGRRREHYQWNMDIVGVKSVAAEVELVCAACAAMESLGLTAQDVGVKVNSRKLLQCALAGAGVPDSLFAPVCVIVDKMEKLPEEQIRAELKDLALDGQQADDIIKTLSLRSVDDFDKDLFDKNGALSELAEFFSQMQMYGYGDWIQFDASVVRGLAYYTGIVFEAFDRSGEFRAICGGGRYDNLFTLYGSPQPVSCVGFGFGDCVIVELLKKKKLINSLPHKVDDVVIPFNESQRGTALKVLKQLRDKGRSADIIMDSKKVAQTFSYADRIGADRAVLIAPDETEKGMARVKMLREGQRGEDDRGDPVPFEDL
UniProt Q4DA54, 1-478: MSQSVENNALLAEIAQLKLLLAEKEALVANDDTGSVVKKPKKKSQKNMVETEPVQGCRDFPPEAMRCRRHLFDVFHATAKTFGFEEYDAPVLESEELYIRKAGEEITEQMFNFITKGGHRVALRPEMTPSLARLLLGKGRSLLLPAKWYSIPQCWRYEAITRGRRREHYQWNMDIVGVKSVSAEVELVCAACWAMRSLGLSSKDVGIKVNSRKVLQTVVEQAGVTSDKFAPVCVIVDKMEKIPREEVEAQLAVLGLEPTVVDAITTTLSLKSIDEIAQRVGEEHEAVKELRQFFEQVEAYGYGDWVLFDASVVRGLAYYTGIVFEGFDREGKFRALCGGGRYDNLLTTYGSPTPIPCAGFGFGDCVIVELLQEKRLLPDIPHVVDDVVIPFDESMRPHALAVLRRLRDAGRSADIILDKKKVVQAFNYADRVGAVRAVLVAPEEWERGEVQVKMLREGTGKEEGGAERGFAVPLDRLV

Measurements from “University of Dundee, Small-Polar-MMV Screening Library” (2021), ChEMBL document CHEMBL3988442.

The filed quantity is “Percent Effect” (%).
The record does not define 0% and 100%; most values in the screen are far below 50% and negative numbers occur (in some assays of this library far below -100).
This is an unselected part of the compounds tested.

CoaBC: 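Enzyme assay of CoaBC with a phosphate dye (Biomol Green) read at 650 nm. Target: Coenzyme A biosynthesis protein CoaBC, Mycobacterium tuberculosis (UniProt P9WNZ1). Compounds at 30 µM. Higher reads as stronger inhibition, judged from the few compounds that gave an IC50. Most strong results did not repeat in a second test. Of about 67,000 compounds tested this way, about 40 (0.06%) reached 50% or more in at least one test.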
MtTrpRS: 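Enzyme assay of tryptophanyl-tRNA synthetase; the read-out is not stated. Target: Tryptophan-tRNA ligase, Mycobacterium tuberculosis (UniProt P9WFT3). Compounds at 10 µM. Direction is not recorded; retested compounds ran higher, which suggests that high means inhibition. About 65,000 compounds were tested under these conditions; 0.098% (about 64) showed 50% or more at least once.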
ClpP1P2: 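ClpP1P2, Mycobacterium tuberculosis (UniProt P9WPC5 and UniProt P9WPC3). Protease assay of ClpP1P2, read by the AMC dye that it sets free. Compounds at 50 µM. Higher reads as stronger inhibition, judged from the few compounds that gave an IC50. Most other retested compounds had strongly negative values. About 69,000 compounds were tested under these conditions; 0.015% (about 10) showed 50% or more at least once.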
LiHisRS: 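Enzyme assay of histidyl-tRNA synthetase; the read-out is not stated. Target: Histidine-tRNA ligase, Leishmania infantum (UniProt A4I591). Tested at 30 µM. Higher reads as stronger inhibition (inferred: compounds with an IC50 in retests scored well above the rest). The assay is labelled LdHisRS but filed under L. infantum. Size under these conditions: about 69,000 compounds, about 410 of them at 50% or above in at least one test.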
TcHisRS: 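Histidine-tRNA ligase, Trypanosoma cruzi CL Brener (UniProt Q4DA54). Enzyme assay of histidyl-tRNA synthetase; the read-out is not stated. Concentration: 30 µM. The record gives no direction; compounds that gave an IC50 in retests scored well above the rest, so higher reads as stronger inhibition. Of about 69,000 compounds tested this way, about 31 (0.045%) reached 50% or more in at least one test.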

For CCCc1n[nH]c(C2CN(CCCS(=O)(=O)N(C)C)CCO2)n1 (centres unmarked) the result was CoaBC: 0.8906%; MtTrpRS: 8.179%; ClpP1P2: 19.3%; LiHisRS: 11.3%; TcHisRS: 2.254%. COC(=O)c1ccc(Cn2nc(C)cc2C)c(F)c1 gave CoaBC: -0.3628%; MtTrpRS: -3.857%; ClpP1P2: -7.249%; LiHisRS: 9.677%; TcHisRS: 4.545%. With CC(C)(NCc1cccc(C#N)c1)c1ccc2c(c1)OCO2 the screen gave CoaBC: -12.76%; MtTrpRS: -0.09709%; ClpP1P2: -3.252%; LiHisRS: 15%; TcHisRS: 0%. For O=C1N(Cc2ccncc2)CCC12CCCNC2 (centres unmarked) the result was CoaBC: 4.505%; MtTrpRS: -4.651%; ClpP1P2: -5.901%; LiHisRS: -1.923%; TcHisRS: 5.825%. Result for CN(C)S(=O)(=O)N1C[C@H]2C[C@H](C(=O)NCc3ccccc3)[C@@H](C1)O2 was CoaBC: -7.563%; MtTrpRS: -1.221%; ClpP1P2: -8.41%; LiHisRS: 3.636%; TcHisRS: 2.479%.

Cc1nc(CN2CCC3(CCN(Cc4nccn4C)CC3)C2=O)cs1 gave CoaBC: -6.535%; MtTrpRS: -12.68%; ClpP1P2: -13.7%; LiHisRS: 5.556%; TcHisRS: -11.43%. With CC(C)c1nn(C)c(Cl)c1CNCC(O)c1cccc(F)c1 (centres unmarked) the screen gave CoaBC: 8.205%; MtTrpRS: -0.7037%; ClpP1P2: 1.884%; LiHisRS: 16%; TcHisRS: 1.887%. With O=C(Cn1ccc(=O)cc1)NCc1ccc2sccc2c1 the screen gave CoaBC: -1.279%; MtTrpRS: -3.937%; ClpP1P2: -0.9607%; LiHisRS: 16.39%; TcHisRS: 0%. With Cc1nn(C)cc1S(=O)(=O)N[C@@H]1CC[C@@H](n2ccnc2C)[C@@H]1O the screen gave CoaBC: 10.5%; MtTrpRS: 9.554%; ClpP1P2: -14.97%; LiHisRS: 9.396%; TcHisRS: 4.857%. With CNC(=O)C1Cn2ccnc2C2(CCN(Cc3csc(C)n3)CC2)O1 (centres unmarked) the screen gave CoaBC: -4.575%; MtTrpRS: -5.088%; ClpP1P2: -8.483%; LiHisRS: 7.018%; TcHisRS: 4.372%.

CC(C)c1nnc2n1CCN(C(=O)c1ccccc1OCC1CC1)C2 gave CoaBC: -0.1626%; MtTrpRS: -4.216%; ClpP1P2: 3.877%; LiHisRS: 17.65%; TcHisRS: -0.9804%. For COCCN1CCC(CNC(=O)C2(C#N)CCCCC2)CC1 the result was CoaBC: 4.435%; MtTrpRS: -3.027%; ClpP1P2: 15.76%; LiHisRS: 7.018%; TcHisRS: 7.563%. With CC(C)SCC(=O)NCc1cc2n(n1)CCCN(C1CCCCC1)C2 the screen gave CoaBC: 1.805%; MtTrpRS: 4.842%; ClpP1P2: 19.25%; LiHisRS: 13.48%; TcHisRS: 3.518%. Result for Cc1ccc2c(n1)N(C)CCN(Cc1ccco1)C2 was CoaBC: 2.748%; MtTrpRS: -1.48%; ClpP1P2: 0.5282%; LiHisRS: 17.54%; TcHisRS: 7.527%. With Cc1ccc(CN(C)Cc2ncc(C(C)(C)C)o2)o1 the screen gave CoaBC: 0%; MtTrpRS: -1.161%; ClpP1P2: 8.651%; LiHisRS: 5.319%; TcHisRS: 9.091%.

Result for Cc1cc2[nH]c(CN3CCCCC3c3cccc(F)c3)cc(=O)n2n1 (centres unmarked) was CoaBC: 19.42%; MtTrpRS: -6.431%; ClpP1P2: -12.96%; LiHisRS: 36.14%; TcHisRS: 10.5%. Result for C[C@@H]1CN(C(=O)C2(N3CCCCC3)Cc3ccccc3C2)C[C@H](C)O1 was CoaBC: 6.688%; MtTrpRS: -1.044%; ClpP1P2: -5.887%; LiHisRS: 12.33%; TcHisRS: 3.96%. With Cn1nc(C(=O)NCc2ccccn2)c2c1CCS(=O)(=O)C2 the screen gave CoaBC: 8.479%; MtTrpRS: 1.005%; ClpP1P2: 5.522%; LiHisRS: 17.48%; TcHisRS: 2.732%. For CCSCC(C)NCc1cn2ccccc2n1 (centres unmarked) the result was CoaBC: -0.3817%; MtTrpRS: 1.039%; ClpP1P2: -13.9%; LiHisRS: 12.2%; TcHisRS: 5.288%.

Once more, the final 2:

Cn1nc(C(=O)NCc2ccccn2)c2c1CCS(=O)(=O)C2 read CoaBC: 8.479%; MtTrpRS: 1.005%; ClpP1P2: 5.522%; LiHisRS: 17.48%; TcHisRS: 2.732%.
CCSCC(C)NCc1cn2ccccc2n1 (centres unmarked) read CoaBC: -0.3817%; MtTrpRS: 1.039%; ClpP1P2: -13.9%; LiHisRS: 12.2%; TcHisRS: 5.288%.